Measurements from US5668289A, “Pyridinone thrombin inhibitors” (Merck & Co., Inc., priority 1996, dated 1997).
Some results were stated once for a whole list of compounds, not compound by compound.

Assays:
human α-thrombin = molecular target: T1, human α-thrombin (Homo sapiens, UniProt P00734); experiment: In vitro assay for proteinase inhibition, human α-thrombin; type: biochemical; details: 25° C., 0.05M TRIS buffer pH 7.4, 0.15M NaCl, 0.1% PEG
T1 construct: human α-thrombin

human trypsin = experiment: In vitro assay for proteinase inhibition, human trypsin; type: biochemical; details: 25° C., 0.05M TRIS buffer pH 7.4, 0.15M NaCl, 0.1% PEG, 1 mM CaCl2

Structure (SMILES) | Ki (human α-thrombin) [nM] | Ki (human trypsin) [nM]
Cc1ccc(NCCc2ccccc2)c(=O)n1CC(=O)NC[C@H]1CC[C@H](N)CC1 [Example II, 3-(2-Phenylethylamino)-6-methyl-1-(methylenecarboxamido-trans-4-aminocyclohexylmethyl)-2-pyridinone] | < 100 | > 500
Cc1ccc(NS(=O)(=O)Cc2ccccc2)c(=O)n1CC(=O)NCc1ccc(N)nc1 [IV, 3-Benzylsulfonylamino-6-methyl-1-(2-amino-5-methylenecarboxamidomethylpyridinyl)-2-pyridinone] | < 100 | > 500
